Results as given in PMC6781351.
These are yes or no findings as the source states them, for the method shown. Binding seen in cells or lysates may run through a third protein. Binding can be weak; no strength is given. Tags and fused reporters may be left off the sequences shown.

Molecular target: T1, His-LSH (UniProt Q9NRZ9)
T1 sequence: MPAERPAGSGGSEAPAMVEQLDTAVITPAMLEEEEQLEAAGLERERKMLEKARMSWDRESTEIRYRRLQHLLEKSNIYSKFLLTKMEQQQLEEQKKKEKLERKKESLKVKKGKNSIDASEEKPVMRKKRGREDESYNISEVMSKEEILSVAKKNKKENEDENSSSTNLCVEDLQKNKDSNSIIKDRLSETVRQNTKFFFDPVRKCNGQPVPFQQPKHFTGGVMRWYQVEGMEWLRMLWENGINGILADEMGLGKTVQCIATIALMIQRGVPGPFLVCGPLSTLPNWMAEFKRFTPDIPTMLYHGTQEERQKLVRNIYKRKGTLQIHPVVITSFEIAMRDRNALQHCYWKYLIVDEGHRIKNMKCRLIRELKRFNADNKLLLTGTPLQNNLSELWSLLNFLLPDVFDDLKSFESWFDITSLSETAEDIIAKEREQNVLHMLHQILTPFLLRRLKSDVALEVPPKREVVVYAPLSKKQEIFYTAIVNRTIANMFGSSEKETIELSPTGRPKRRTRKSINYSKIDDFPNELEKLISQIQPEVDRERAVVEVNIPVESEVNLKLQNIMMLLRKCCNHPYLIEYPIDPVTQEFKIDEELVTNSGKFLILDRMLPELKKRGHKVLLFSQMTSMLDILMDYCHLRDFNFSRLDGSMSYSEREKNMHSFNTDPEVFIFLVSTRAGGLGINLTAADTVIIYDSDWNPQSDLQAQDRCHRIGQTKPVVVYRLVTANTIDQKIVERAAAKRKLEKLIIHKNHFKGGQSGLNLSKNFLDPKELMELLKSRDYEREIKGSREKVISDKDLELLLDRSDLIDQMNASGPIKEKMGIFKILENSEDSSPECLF
Assay: co-IP; anti-His antibody; HEK293T cells transfected with His-LSH plus one of the FLAG-PKM2 mutants

| Substance | binding |
| --- | --- |
| FLAG-PKM2 ΔC55 (domain or fragment) | binds weakly |
| FLAG-PKM2 ΔN110 (domain or fragment) | binds |
| FLAG-PKM2 ΔC165 (domain or fragment) | no binding |
| FLAG-PKM2 ΔC110 (domain or fragment) | binds |
